The values that follow come from the supplement of paper PMC7238544.

Experiment [1] has as its system hAMSC donor 1. As to the kind of experiment: Hoechst total cell count ratio vs vehicle control; higher = more cells (less toxicity).
Experiment [2] deals with hAMSC donor 2. The description is as above.
Experiment [3] deals with hAMSC donor 1. As to the kind of experiment: transgenic luciferase activity (RLU/mg protein) fold change vs vehicle control (ratio); higher = more transgene expression.
Experiment [4] relates to hAMSC donor 2. The description is as above.
Experiment [5] relates to hAMSC donor 1. As to the kind of experiment: transfection efficiency (EGFP+ cells / Hoechst count) fold change vs vehicle control (ratio); hAMSC are human adipose-derived mesenchymal stem cells given an EGFP-luciferase plasmid by lipofection; higher = enhanced transfection.
Experiment [6] has as its system hAMSC donor 2. The experiment is described as above.
Where [7] appears, read: priming compound concentration 0.2 µM.
Setting [8] is: priming compound concentration 1.7 µM.
Setting [9] is: priming compound concentration 13 µM.

Counter-ions that a name gives are not always drawn. ± gives the standard deviation of the averaged measurements. This is one part of the list. The data scatter; read single values as rough.

`CC/C(=C(\c1ccccc1)c1ccc(OCCN(C)C)cc1)c1ccccc1` [Tamoxifen]: the “Hoechst total cell count ratio” value in the experiment with hAMSC donor 1 [1] (setting [7]) amounted to 1.25 ± 0.084; in the experiment with hAMSC donor 1 [1] (setting [8]), 1.58 ± 0.26; in the experiment on hAMSC donor 1 [1] (setting [9]) it was 1.352 ± 0.005; in the experiment on hAMSC donor 2 [2] (setting [7]), 1.15 ± 0.12; in the experiment on hAMSC donor 2 [2] (setting [8]), 1.26 ± 0.089; in the experiment on hAMSC donor 2 [2] (setting [9]), 1.65 ± 0.12. For the same compound, the transgenic luciferase activity with hAMSC donor 1 [3] (setting [9]) was found to be 0.459 ± 0.13; in the experiment with hAMSC donor 2 [4] (setting [7]), 0.802 ± 0.16; in the experiment on hAMSC donor 2 [4] (setting [9]), 0.437 ± 0.023. Moreover, the transfection efficiency in the experiment on hAMSC donor 1 [5] (setting [7]) was found to be 0.966 ± 0.46; with hAMSC donor 1 [5] (setting [8]) it was 0.706 ± 0.3; in the experiment with hAMSC donor 1 [5] (setting [9]) it was 0.608 ± 0.064; in the experiment on hAMSC donor 2 [6] (setting [7]), 1.09 ± 0.048; in the experiment on hAMSC donor 2 [6] (setting [8]), 0.822 ± 0.11; in the experiment on hAMSC donor 2 [6] (setting [9]), 0.581 ± 0.074.
Turning to `Cc1nc2ccccn2c(=O)c1CCN1CCC(C(=O)c2ccc(F)cc2)CC1` [Pirenperone], the “Hoechst total cell count ratio” value in the experiment with hAMSC donor 1 [1] (setting [7]) was 1.22 ± 0.32; in the experiment on hAMSC donor 1 [1] (setting [8]), 1.21 ± 0.15; in the experiment with hAMSC donor 1 [1] (setting [9]), 1.64 ± 0.25; in the experiment with hAMSC donor 2 [2] (setting [7]) it was 1.02 ± 0.13; in the experiment with hAMSC donor 2 [2] (setting [8]), 1.42 ± 0.1; in the experiment with hAMSC donor 2 [2] (setting [9]), 1.44 ± 0.088. For the same compound, the values for the transgenic luciferase activity in the experiment on hAMSC donor 1 [3] (setting [8]), in the experiment with hAMSC donor 2 [4] (setting [8]) and with hAMSC donor 2 [4] (setting [9]) were 0.763 ± 0.29, 0.923 ± 0.042 and 0.56 ± 0.11, respectively. Further, the transfection efficiency is 0.926 ± 0.36 with hAMSC donor 1 [5] (setting [7]); 1.07 ± 0.26 with hAMSC donor 1 [5] (setting [8]); 0.623 ± 0.23 in the experiment on hAMSC donor 1 [5] (setting [9]); 1.27 ± 0.28 in the experiment with hAMSC donor 2 [6] (setting [7]); 1.18 ± 0.038 with hAMSC donor 2 [6] (setting [8]); 0.793 ± 0.063 with hAMSC donor 2 [6] (setting [9]).
`O=C1N(c2ccccc2)c2ccccc2C1(Cc1ccncc1)Cc1ccncc1` [Linopirdine dihydrochloride]: the “Hoechst total cell count ratio” value in the experiment with hAMSC donor 1 [1] (setting [7]) is 1.33 ± 0.12; in the experiment with hAMSC donor 1 [1] (setting [8]), 1.18 ± 0.034; in the experiment with hAMSC donor 1 [1] (setting [9]), 1.23 ± 0.028; in the experiment with hAMSC donor 2 [2] (setting [7]), 1.36 ± 0.095; in the experiment with hAMSC donor 2 [2] (setting [8]) it was 1.34 ± 0.21; in the experiment with hAMSC donor 2 [2] (setting [9]) it was 1.05 ± 0.035. For the same compound, the values for the transgenic luciferase activity in the experiment on hAMSC donor 1 [3] (setting [8]), in the experiment on hAMSC donor 2 [4] (setting [8]) and in the experiment on hAMSC donor 2 [4] (setting [9]) were 1.2 ± 0.23, 0.313 ± 0.13 and 0.494 ± 0.073, respectively. Moreover, the transfection efficiency in the experiment with hAMSC donor 1 [5] (setting [7]) was determined as 0.777 ± 0.15; with hAMSC donor 1 [5] (setting [8]) it was 1.21 ± 0.22; in the experiment with hAMSC donor 1 [5] (setting [9]) it was 1.18 ± 0.45; in the experiment on hAMSC donor 2 [6] (setting [7]), 0.865 ± 0.13; with hAMSC donor 2 [6] (setting [8]), 0.966 ± 0.062; in the experiment on hAMSC donor 2 [6] (setting [9]), 1.14 ± 0.22.
`O=C1NC(=O)C(c2ccccc2)(c2ccccc2)N1` [Dilantin]: the “Hoechst total cell count ratio” value in the experiment with hAMSC donor 1 [1] (setting [7]) came out at 1.12 ± 0.022; in the experiment on hAMSC donor 1 [1] (setting [8]), 1.26 ± 0.094; in the experiment on hAMSC donor 1 [1] (setting [9]), 0.881 ± 0.058; in the experiment with hAMSC donor 2 [2] (setting [7]), 1.14 ± 0.13; in the experiment with hAMSC donor 2 [2] (setting [8]) it was 1.01 ± 0.087; with hAMSC donor 2 [2] (setting [9]), 1.02 ± 0.12. In addition, the figures for the transgenic luciferase activity with hAMSC donor 1 [3] (setting [9]), in the experiment on hAMSC donor 2 [4] (setting [7]) and in the experiment with hAMSC donor 2 [4] (setting [9]) were 0.743 ± 0.11, 0.794 ± 0.16 and 0.552 ± 0.11, respectively. For the same compound, the transfection efficiency with hAMSC donor 1 [5] (setting [7]) was found to be 0.912 ± 0.18; in the experiment on hAMSC donor 1 [5] (setting [8]), 0.984 ± 0.41; in the experiment with hAMSC donor 1 [5] (setting [9]), 0.914 ± 0.1; with hAMSC donor 2 [6] (setting [7]), 1.35 ± 0.34; in the experiment on hAMSC donor 2 [6] (setting [8]), 1.12 ± 0.0084; with hAMSC donor 2 [6] (setting [9]), 1 ± 0.019.
As for `O=c1[nH]cnc2c1ncn2[C@H]1CC[C@@H](CO)O1` [Didanosine], the “Hoechst total cell count ratio” value with hAMSC donor 1 [1] (setting [7]) was 1.2 ± 0.17; with hAMSC donor 1 [1] (setting [8]), 1.24 ± 0.22; with hAMSC donor 1 [1] (setting [9]), 1.6 ± 0.1; with hAMSC donor 2 [2] (setting [7]), 1.2 ± 0.23; in the experiment on hAMSC donor 2 [2] (setting [8]), 1.19 ± 0.091; with hAMSC donor 2 [2] (setting [9]) it was 1.17 ± 0.033. The figures for the transgenic luciferase activity in the experiment with hAMSC donor 1 [3] (setting [8]), with hAMSC donor 2 [4] (setting [8]) and in the experiment with hAMSC donor 2 [4] (setting [9]) were 0.792 ± 0.057, 0.795 ± 0.13 and 0.518 ± 0.093, respectively. Further, the transfection efficiency in the experiment on hAMSC donor 1 [5] (setting [7]) turned out to be 0.938 ± 0.091; in the experiment on hAMSC donor 1 [5] (setting [8]), 1.15 ± 0.061; in the experiment on hAMSC donor 1 [5] (setting [9]) it was 0.866 ± 0.21; with hAMSC donor 2 [6] (setting [7]) it was 1.18 ± 0.042; in the experiment with hAMSC donor 2 [6] (setting [8]), 1.17 ± 0.12; with hAMSC donor 2 [6] (setting [9]) it was 0.943 ± 0.059.
As for `CCN(CC)CC(=O)Nc1c(C)cccc1C` [Lidocaine], the “Hoechst total cell count ratio” value amounted to 0.986 ± 0.058 in the experiment with hAMSC donor 1 [1] (setting [7]); 1.07 ± 0.052 with hAMSC donor 1 [1] (setting [8]); 0.99 ± 0.14 with hAMSC donor 1 [1] (setting [9]); 1.29 ± 0.058 in the experiment with hAMSC donor 2 [2] (setting [7]); 1.34 ± 0.067 with hAMSC donor 2 [2] (setting [8]); 1.24 ± 0.2 in the experiment on hAMSC donor 2 [2] (setting [9]). For the same compound, the transgenic luciferase activity was 1.22 ± 0.91 in the experiment with hAMSC donor 1 [3] (setting [8]), 0.34 ± 0.16 in the experiment with hAMSC donor 2 [4] (setting [8]) and 0.685 ± 0.2 with hAMSC donor 2 [4] (setting [9]). In addition, the transfection efficiency with hAMSC donor 1 [5] (setting [7]) stood at 1.2 ± 0.22; in the experiment with hAMSC donor 1 [5] (setting [8]) it was 0.811 ± 0.09; with hAMSC donor 1 [5] (setting [9]), 1.09 ± 0.26; with hAMSC donor 2 [6] (setting [7]), 0.902 ± 0.046; in the experiment on hAMSC donor 2 [6] (setting [8]), 0.866 ± 0.017; in the experiment with hAMSC donor 2 [6] (setting [9]) it was 1.08 ± 0.24.
With `CC(C)NCC(O)COc1ccc(COCCOC(C)C)cc1` (stereo not given) [Bisoprolol fumarate], the “Hoechst total cell count ratio” value is 1.24 ± 0.17 in the experiment with hAMSC donor 1 [1] (setting [7]); 1.25 ± 0.097 in the experiment with hAMSC donor 1 [1] (setting [8]); 1.45 ± 0.05 in the experiment with hAMSC donor 1 [1] (setting [9]); 1.28 ± 0.059 in the experiment with hAMSC donor 2 [2] (setting [7]); 1.22 ± 0.12 in the experiment with hAMSC donor 2 [2] (setting [8]); 1.14 ± 0.073 in the experiment with hAMSC donor 2 [2] (setting [9]). In addition, the transgenic luciferase activity in the experiment on hAMSC donor 1 [3] (setting [8]) was determined as 0.79 ± 0.38; in the experiment with hAMSC donor 2 [4] (setting [8]) it was 0.97 ± 0.17; in the experiment with hAMSC donor 2 [4] (setting [9]), 0.545 ± 0.096. In addition, the transfection efficiency in the experiment with hAMSC donor 1 [5] (setting [7]) was determined as 0.927 ± 0.27; in the experiment with hAMSC donor 1 [5] (setting [8]), 0.979 ± 0.32; in the experiment on hAMSC donor 1 [5] (setting [9]) it was 0.865 ± 0.15; in the experiment with hAMSC donor 2 [6] (setting [7]), 1.01 ± 0.22; in the experiment with hAMSC donor 2 [6] (setting [8]), 1.02 ± 0.15; in the experiment on hAMSC donor 2 [6] (setting [9]), 0.891 ± 0.1.
For the compound `Nc1nc2ccc(Cl)cc2c2nc(-c3ccco3)nn12`, the “Hoechst total cell count ratio” value amounted to 1.31 ± 0.093 in the experiment on hAMSC donor 1 [1] (setting [7]); 1.32 ± 0.24 in the experiment on hAMSC donor 1 [1] (setting [8]); 1.85 ± 0.3 in the experiment on hAMSC donor 1 [1] (setting [9]); 1.3 ± 0.14 with hAMSC donor 2 [2] (setting [7]); 1.5 ± 0.022 in the experiment with hAMSC donor 2 [2] (setting [8]); 1.57 ± 0.14 in the experiment with hAMSC donor 2 [2] (setting [9]). Further, the transgenic luciferase activity in the experiment on hAMSC donor 1 [3] (setting [8]) is 1.64 ± 0.23; in the experiment on hAMSC donor 2 [4] (setting [8]), 0.9 ± 0.29; in the experiment with hAMSC donor 2 [4] (setting [9]) it was 0.521 ± 0.012. Besides, the transfection efficiency is 0.682 ± 0.12 in the experiment on hAMSC donor 1 [5] (setting [7]); 0.695 ± 0.25 in the experiment with hAMSC donor 1 [5] (setting [8]); 0.509 ± 0.086 in the experiment on hAMSC donor 1 [5] (setting [9]); 0.981 ± 0.17 with hAMSC donor 2 [6] (setting [7]); 0.86 ± 0.053 with hAMSC donor 2 [6] (setting [8]); 0.672 ± 0.13 in the experiment on hAMSC donor 2 [6] (setting [9]).
